This test concerns the target myc-tagged Q0IFK9 (aBravo, aedine broadly active antiviral protein) (Ae. aegypti) (UniProt Q0IFK9). Nature of the test: co-IP.

Protein sequences, listed by entry. Tags and fused reporters are not part of them. Lines headed by an entry give the natural chain unless they say otherwise; changes in a name come on top.
UniProt Q0IFK9: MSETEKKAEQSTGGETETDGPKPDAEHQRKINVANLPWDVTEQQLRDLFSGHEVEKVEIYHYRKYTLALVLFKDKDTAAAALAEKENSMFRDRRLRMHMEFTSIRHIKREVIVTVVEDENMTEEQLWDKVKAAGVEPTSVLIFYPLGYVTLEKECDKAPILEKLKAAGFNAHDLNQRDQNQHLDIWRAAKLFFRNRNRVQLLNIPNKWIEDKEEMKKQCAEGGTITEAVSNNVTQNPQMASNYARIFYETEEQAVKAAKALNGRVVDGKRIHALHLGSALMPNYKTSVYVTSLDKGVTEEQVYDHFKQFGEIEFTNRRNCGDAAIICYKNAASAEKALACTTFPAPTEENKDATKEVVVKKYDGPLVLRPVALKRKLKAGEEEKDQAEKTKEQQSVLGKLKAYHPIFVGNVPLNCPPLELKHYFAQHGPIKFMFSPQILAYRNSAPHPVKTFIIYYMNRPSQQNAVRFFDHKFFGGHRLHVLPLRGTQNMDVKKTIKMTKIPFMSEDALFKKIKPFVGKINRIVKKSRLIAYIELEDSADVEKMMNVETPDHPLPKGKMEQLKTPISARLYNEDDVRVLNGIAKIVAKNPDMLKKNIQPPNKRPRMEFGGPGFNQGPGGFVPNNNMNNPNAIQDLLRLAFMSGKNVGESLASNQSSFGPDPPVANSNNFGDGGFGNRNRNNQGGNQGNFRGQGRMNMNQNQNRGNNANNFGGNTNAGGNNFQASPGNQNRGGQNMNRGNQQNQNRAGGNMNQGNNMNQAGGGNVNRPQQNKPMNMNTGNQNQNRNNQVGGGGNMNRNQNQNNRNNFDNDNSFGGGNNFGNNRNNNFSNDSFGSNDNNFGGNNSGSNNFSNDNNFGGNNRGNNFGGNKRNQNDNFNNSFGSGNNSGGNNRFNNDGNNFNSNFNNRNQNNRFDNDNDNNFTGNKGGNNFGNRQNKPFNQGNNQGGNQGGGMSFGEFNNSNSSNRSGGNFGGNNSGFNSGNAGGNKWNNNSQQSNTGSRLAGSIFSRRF

These are yes or no findings as the source states them, for the method shown. Binding seen in cells or lysates may run through a third protein. Binding can be weak; no strength is given. Where a sequence is shown, tags or fusion partners need not be part of it.

For the molecule “V5-tagged Ae. aegypti Dicer 2 (Dcr2) (from UniProt Q49LL4) (enzyme)”, the binding entry is reported as “binds”.

B1: V5-tagged Ae. aegypti Argonaute 2 (Ago2) (protein, UniProt C5J0H4 1-992)
chain: MILNARYLYIPCRQKQQQQQQQPQQQQQHQQKQQSQQQQQQQQQQQRSKEQGSQQQQRPQQQAQQQQPSQQQQQSQKQQHPQQQQQQRPQKQQQQFQQDQRPQQQQQQLQKQQQQQGQSWRPQSHDPSPASGSHSHSSSPSHAAALERVEEDFSKIKIDKQKIHSSALLPVLMRPNAHGTRGRAIKVEVNYIQLLLERLIPTAYHYDVDIQPAASRKWQRLAFSEFTKQMFPNHGFAFDGHKNAYAARRLQADVYEQEVKVRDEGRERRFKVAMKEAAVLDMTCLKTYMNNGSTLDKPMSAIQCLDIVLRTAYENNPRFIKFKKSIYVKPDRPDDIGSNHELWYGLFQSALLGARPFLNIDVSHKAFPTGGPVLRILVDMNRGQVPDRVTDWMSRDLHDFLKGMELSYTGPDGVSKLFKYNSIKSPANQQKFKLENGTEMTIDQYFRSKNKQLRYPSLPVLHVGSLVRNVMLPIELCSIPPGQALNKKHPDQCTQFIIRKSATDTATRKRKIMDLFNQIGYNNAPTIKEFGVSVGNNFETVDGRILDPPELSYRNDRRVKPMRGVWRADNMNFIIPSTEITRRELSWTILNLDGRTRPDAIDEFGRNIYQMSLKQGVQLQQFSMKNNFYEPRDMRFAVKDLDNIFDELKKRKIDLVFVVIPSPGRDGDVYAKVKQKAELCVGLLTQCIKSFTLDKKRGDMSTISNIWLKINAKTNGSNHVLAKNFKPPIARKTVMYVGADVTHPSPEQTNIPSVVGVAASYDLEGFRYNCCYRLQGPKDEMIRDLQNIVIKQLRQFKQTNQSLPELIMYYRDGVSEGQFQEVLTIELRAMQAAAASVQQGYKPNITFIVVQKRHHARFFPTANCPTEGRNNNVQPGTIVDRYITAPNQYQFFLVSHAAVQGVAKPTKYCVLYDDENCNPDQLQALTYYLCHMFTRCNRAVSYPAPTYYAHLAAYRGRVYIKDRPLNMNNLTKEYERMQIRTEIQDGHPMFFV
For the molecule B1, the binding result was “binds”.

The values are drawn from paper PMC7411624.
